The values that follow come from US11632972B2, “S-nitrosothiol compounds and their combinations with nitrosamine blocking agents for safe food preservation” (YISSUM RESEARCH DEVELOPMENT COMPANY OF THE HEBREW …, priority 2017, dated 2023).

Each structure is given as a SMILES string.

Series [1] is described as follows: N-nitrosamine formation from N-methylaniline in a meat model system (ground beef). The conditions noted are these: for N-nitrosamines level: Experiment D: vacuum 100 mbar, 192 h storage at 4° C.; for change of concentration of N-nitrosamines after transfer to simulated stomach medium: Experiment F: pH 3.0; for N-nitrosamines levels: Experiment F: 2% NaCl, 3.27 mM ascorbic acid, stored 4° C. 216 hr.

Series [2] is described as follows: Effect on the color of the meat (Hunter L*, a*, b*, colorimeter). The conditions noted are these: ground beef heated to 72° C. As for the experimental part:
Nitrite is known to be responsible for the characteristic pink color associated with cured meat products and flavor stabilization. The color development and color stability of ground beef treated S-nitroso-cysteine and S-nitroso-N-acetylcysteine after heating to 72° C. was compared to the color of ground beef treated with nitrite. A portable colorimeter (X-rite) was used to measure Hunter color lightness, redness and yellowness (L*, a*, b*) values of ground beef samples treated with the different additives and heated in a microwave oven (Dow, S-Korea, at 800 W) to 72° C. in the center. The instrument was standardized using white and black standard plates.

[3] abbreviates: Experiment B: 2.5 mM additive, heated 72° C., stored 24 h at 4° C., homogenized pH 6.2.
The mark [4] stands for this setting: Experiment C: stored 24 h at 4° C., homogenized pH 3.0, incubated 37° C. 30 min (stomach conditions).

As for `CC(=O)N[C@@H](CSN=O)C(=O)O` [S-nitroso-N-acetylcysteine], the N-nitrosamines formation was determined as 13 µM in series [1] (setting [3]) and 15 µM in series [1] (setting [4]). In series [1] (heated 72° C.), the N-nitrosamines level was ~20 µM. In series [1], the “change of concentration of N-nitrosamines after transfer to simulated stomach medium” value is recorded as “almost did not change”. Moreover, in series [1] (vacuum bags vs aerobic), the “N-nitrosamine formation in anaerobic conditions compared to aerobic conditions” value is “remained low and the same”. In addition, the “redness (Δa*) of meat compared with meat treated with sodium nitrite” value in series [2] was “twofold redder”.

As for `N[C@@H](CSN=O)C(=O)O` [S-nitroso-cysteine, S-nitrosocysteine], the N-nitrosamines formation in series [1] (Experiment A: 2.5 mM additive, heated 72° C., cooled to 4° C. (30 minutes), homogenized immediately pH 6.2) was ~28 µM; in series [1] (setting [3]) it was “significantly higher than nitrite and S-nitroso-N-acetylcysteine”; in series [1] (setting [4]) it was 47 µM. Moreover, the N-nitrosamines level in series [1] (heated 72° C.) is ~50 µM. Also, the “change of concentration of N-nitrosamines after transfer to simulated stomach medium” value in series [1] is given as “almost did not change”. Besides, the “reduction of N-nitrosamine formation in anaerobic conditions compared to aerobic conditions” value in series [1] (vacuum bags vs aerobic) is listed as ~40%. The “redness (Δa*) of meat compared with meat treated with sodium nitrite” value in series [2] is “twofold redder”.

`O=NO` [sodium nitrite]: the N-nitrosamines formation in series [1] (setting [3]) turned out to be 15 µM; in series [1] (setting [4]), 115 µM. Also, the “increase of N-nitrosamines formation at acidic stomach pH” value in series [1] (Experiment C compared with 24 h storage (Experiment B)) is listed as “eightfold”. In series [1] (heated 72° C.), the N-nitrosamines level is ~50 µM. Moreover, in series [1] (Experiment E: vacuum 8 mbar, after 216 hr), the “N-nitrosamine formation relative to the other agents” value is on record as “twofold higher than the other agents”. Moreover, the N-nitrosamines levels was ~20 µM in series [1] (before transfer to simulated stomach medium) and 90 µM in series [1] (simulated stomach medium pH 3.0, 30 min, 37° C.). Further, in series [1] (Experiment F: pH 3.0, 30 min, in the presence of ascorbic acid), the “increase of N-nitrosamines levels after transfer to simulated stomach medium” value is “more than fourfold”. Further, in series [1] (vacuum bags vs aerobic), the “reduction of N-nitrosamine formation in anaerobic conditions compared to aerobic conditions” value was ~40%.
